Source: PMC2868905
These are yes or no findings as the source states them, for the method shown. Binding seen in cells or lysates may run through a third protein. Some results given as binding are weak or reduced against the parent protein; the word gives no strength.

Amino acid sequences for entries named in this document (tags omitted).
UniProt Q3TKT4: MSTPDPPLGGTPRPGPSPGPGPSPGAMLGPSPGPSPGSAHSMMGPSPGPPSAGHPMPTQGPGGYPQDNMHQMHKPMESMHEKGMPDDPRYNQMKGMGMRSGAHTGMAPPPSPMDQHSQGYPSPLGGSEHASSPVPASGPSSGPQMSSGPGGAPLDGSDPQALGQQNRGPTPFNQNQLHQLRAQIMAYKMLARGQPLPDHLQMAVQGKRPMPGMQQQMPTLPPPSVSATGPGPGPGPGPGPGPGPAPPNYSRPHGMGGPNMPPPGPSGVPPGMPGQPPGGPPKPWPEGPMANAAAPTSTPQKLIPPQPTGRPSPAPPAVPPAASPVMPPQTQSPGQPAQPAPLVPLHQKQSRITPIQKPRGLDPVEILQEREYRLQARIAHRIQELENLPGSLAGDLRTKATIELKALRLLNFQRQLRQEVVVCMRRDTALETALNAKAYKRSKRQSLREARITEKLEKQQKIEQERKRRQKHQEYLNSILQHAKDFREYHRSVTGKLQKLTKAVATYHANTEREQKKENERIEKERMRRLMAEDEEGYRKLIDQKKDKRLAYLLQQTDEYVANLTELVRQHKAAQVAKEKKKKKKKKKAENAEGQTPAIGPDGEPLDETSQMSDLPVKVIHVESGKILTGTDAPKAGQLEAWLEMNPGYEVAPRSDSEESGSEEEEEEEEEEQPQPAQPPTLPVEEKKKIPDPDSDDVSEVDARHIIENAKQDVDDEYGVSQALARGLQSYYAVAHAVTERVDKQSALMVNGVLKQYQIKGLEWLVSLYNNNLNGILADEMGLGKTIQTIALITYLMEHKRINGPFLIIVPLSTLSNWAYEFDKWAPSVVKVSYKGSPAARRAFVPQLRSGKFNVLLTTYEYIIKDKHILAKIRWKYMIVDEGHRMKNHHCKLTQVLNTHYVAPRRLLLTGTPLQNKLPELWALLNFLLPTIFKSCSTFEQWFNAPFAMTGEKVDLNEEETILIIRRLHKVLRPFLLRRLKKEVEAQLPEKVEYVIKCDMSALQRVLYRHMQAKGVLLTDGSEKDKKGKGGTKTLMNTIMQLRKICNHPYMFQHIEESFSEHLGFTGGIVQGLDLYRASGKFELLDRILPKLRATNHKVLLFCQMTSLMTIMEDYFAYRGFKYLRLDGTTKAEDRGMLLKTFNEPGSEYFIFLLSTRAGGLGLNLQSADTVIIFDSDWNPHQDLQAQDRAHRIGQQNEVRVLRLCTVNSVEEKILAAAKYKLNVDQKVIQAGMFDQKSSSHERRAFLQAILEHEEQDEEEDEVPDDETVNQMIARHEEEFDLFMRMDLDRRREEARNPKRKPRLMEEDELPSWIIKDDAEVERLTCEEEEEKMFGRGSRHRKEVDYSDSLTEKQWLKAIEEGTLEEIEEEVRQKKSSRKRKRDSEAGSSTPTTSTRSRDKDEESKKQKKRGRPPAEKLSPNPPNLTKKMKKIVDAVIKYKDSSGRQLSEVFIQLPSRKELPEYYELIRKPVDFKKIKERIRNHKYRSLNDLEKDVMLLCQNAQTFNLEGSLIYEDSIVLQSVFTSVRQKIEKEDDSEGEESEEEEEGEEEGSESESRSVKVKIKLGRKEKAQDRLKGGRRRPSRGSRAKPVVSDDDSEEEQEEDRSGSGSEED

Target: Brahma related gene 1 (Brg1) (mouse (endogenous in TS cells)) (UniProt Q3TKT4)
Test: co-IP; about 2 mg TS cell lysate in lysis buffer (50 mM HEPES, 150 mM NaCl, 1 mM EDTA, 2.5 mM EGTA, 10% glycerol, 0.1% tween 20); Brg1 precipitated with Brg1 rabbit anti-serum overnight at 4°C, Protein-G agarose; Cdx2 detected by Western blot; rabbit IgG as control

binding: binds
B1: Cdx2 (protein, UniProt P43241 1-311)
chain: MYVSYLLDKDVSMYPSSVRHSGGLNLAPQNFVSPPQYPDYGGYHVAAAAAATANLDSAQSPGPSWPTAYGAPLREDWNGYAPGGAAAANAVAHGLNGGSPAAAMGYSSPAEYHAHHHPHHHPHHPAASPSCASGLLQTLNLGPPGPAATAAAEQLSPSGQRRNLCEWMRKPAQQSLGSQVKTRTKDKYRVVYTDHQRLELEKEFHFSRYITIRRKSELAATLGLSERQVKIWFQNRRAKERKIKKKQQQQQQQQQQQPPQPPPQPSQPQPGALRSVPEPLSPVTSLQGSVPGSVPGVLGPAGGVLNSTVTQ
